This is an account of results in PMC12548456.

Sequences of proteins named here, by UniProt entry; tags and fusion partners are left off. A change or cut given only in a name is not applied to a line headed by its entry.
UniProt A0A0U1RR32: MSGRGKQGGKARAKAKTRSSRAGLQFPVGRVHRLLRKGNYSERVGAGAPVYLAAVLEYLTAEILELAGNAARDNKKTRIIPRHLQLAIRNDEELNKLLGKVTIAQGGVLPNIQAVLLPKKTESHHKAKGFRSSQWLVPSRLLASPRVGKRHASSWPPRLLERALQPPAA

This assay deals with T1, GFP-U65 (HHV-6B tegument protein U65, GFP-tagged) (HHV-6B) (UniProt Q9QJ19).
T1 sequence: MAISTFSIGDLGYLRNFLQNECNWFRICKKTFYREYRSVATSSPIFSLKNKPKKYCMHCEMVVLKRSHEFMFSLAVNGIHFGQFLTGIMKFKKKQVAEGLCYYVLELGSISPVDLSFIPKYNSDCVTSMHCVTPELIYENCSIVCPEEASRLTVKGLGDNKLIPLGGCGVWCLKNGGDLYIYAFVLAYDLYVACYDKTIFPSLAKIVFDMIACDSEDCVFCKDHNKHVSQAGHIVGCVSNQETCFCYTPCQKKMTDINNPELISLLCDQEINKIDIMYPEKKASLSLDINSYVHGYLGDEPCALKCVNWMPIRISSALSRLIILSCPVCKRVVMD
Kind of assay: affinity purification with mass spectrometry; GFP or GFP-U65 expressed in 293T cells; lysate (10 mM Tris-HCl pH 7.5, 150 mM NaCl, 1% NP-40) incubated with GST-tagged anti-GFP nanobody at 4°C overnight, washed 10 times; LC-MS of the co-precipitated proteins.

No constants are given. Whether binding was seen depends on the method and setting. Binding seen in cells or lysates may run through a third protein. Here binding means that the protein was enriched with, or labelled near, the bait; the list need not be complete. Tags and fused reporters may be left off the sequences shown.

In the case of “Histone H2A (hCG_2039566), endogenous (from UniProt A0A0U1RR32 1-169)”, the binding entry is “binds”.
